Measurements from “University of Dundee, Small-Polar-MMV Screening Library” (2021), ChEMBL document CHEMBL3988442.

Chains of the proteins cited; added tags and fusions are not shown.
UniProt E9BF75, entry or part of it: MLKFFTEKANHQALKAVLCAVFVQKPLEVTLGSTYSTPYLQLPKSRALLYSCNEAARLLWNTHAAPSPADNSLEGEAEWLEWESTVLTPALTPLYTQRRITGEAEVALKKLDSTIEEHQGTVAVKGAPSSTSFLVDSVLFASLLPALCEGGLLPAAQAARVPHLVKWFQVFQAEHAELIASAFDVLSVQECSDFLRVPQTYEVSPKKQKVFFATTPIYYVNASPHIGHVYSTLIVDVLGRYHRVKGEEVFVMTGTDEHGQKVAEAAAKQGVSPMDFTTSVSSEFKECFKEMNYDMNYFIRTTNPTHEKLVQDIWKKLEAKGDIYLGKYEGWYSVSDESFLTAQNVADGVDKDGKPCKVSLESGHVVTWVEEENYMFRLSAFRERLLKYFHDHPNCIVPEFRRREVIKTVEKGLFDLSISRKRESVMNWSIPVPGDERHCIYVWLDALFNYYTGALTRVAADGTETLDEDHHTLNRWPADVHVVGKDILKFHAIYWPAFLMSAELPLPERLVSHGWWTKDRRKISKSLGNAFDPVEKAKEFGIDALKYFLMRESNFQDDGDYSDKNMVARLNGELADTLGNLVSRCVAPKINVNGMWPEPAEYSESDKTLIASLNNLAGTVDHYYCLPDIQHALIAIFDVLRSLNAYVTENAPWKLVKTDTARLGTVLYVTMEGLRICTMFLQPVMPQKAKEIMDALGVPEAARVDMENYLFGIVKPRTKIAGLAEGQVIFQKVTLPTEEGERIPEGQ

Mtb heat-shock: 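Assay on Mycobacterium tuberculosis, filed only as a heat shock assay from Cornell; the read-out is not stated. The concentration is filed as 10 mM, unlikely as a test dose, so the dose is not known. The record gives no direction; compounds that gave an IC50 in retests scored well above the rest, so higher reads as stronger inhibition. Size under these conditions: about 69,000 compounds, about 930 of them at 50% or above in at least one test.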
Mtb growth Cornell: 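Whole-cell assay for inhibitors of Mycobacterium tuberculosis growth, labelled Cornell in the record; the read-out is not stated. The concentration is filed as 10 mM, unlikely as a test dose, so the dose is not known. Higher means stronger inhibition (inferred from two other growth screens of the library). About 53,000 compounds were tested under these conditions; 1.7% (about 900) showed 50% or more at least once.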
LdMetRS: 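Methionyl-tRNA synthetase (putative), Leishmania donovani (UniProt E9BF75). Primary screen of methionyl-tRNA synthetase; the read-out is not stated. The test concentration is not given. Values are per cent inhibition. Of about 68,000 compounds tested this way, about 24 (0.035%) reached 50% or more in at least one test.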

All values are in %.
The controls that fix the scale are not given in the record; negative values are as filed.
This is an unselected part of the compounds tested.
A dash means the value is not listed here; it may have been measured.

- CCN(C)C[C@@H]1CN(C(=O)c2cc(C(F)(F)F)n[nH]2)C[C@@H]1CO : Mtb heat-shock: 7.598%; Mtb growth Cornell: 8.284%; LdMetRS: 14.6%
- O=C(O)C(F)(F)F.[H][C@@]12CCN(c3ccc(C)nn3)[C@]1([H])CC[C@@H](C(=O)N1CCCCO1)O2 : Mtb heat-shock: 36.81%; Mtb growth Cornell: -22.21%
- c1[nH]c(CC2CCCC2)nc1CN1CCCC2(CCOC2)C1 (stereo not shown) : Mtb heat-shock: -0.6443%; Mtb growth Cornell: 21.98%; LdMetRS: 14.54%
- O=c1cc(Cn2cncn2)nc2n1CCCN(Cc1ccc(F)cc1)C2 : LdMetRS: 13.12%
- CCNC(=O)[C@@H]1C[C@@H](n2cc(CN(CC)CC)nn2)CN1 : Mtb heat-shock: -0.1336%; Mtb growth Cornell: -6.779%; LdMetRS: 10.06%
- Nc1nccnc1C(=O)N1CC(OCc2cccc3ccccc23)C1 : Mtb heat-shock: -22.38%; Mtb growth Cornell: 6.508%; LdMetRS: 17.8%
- CCOCC1CN(C(=O)Cc2ccccn2)Cc2c1cnn2C.O=C(O)C(F)(F)F.O=C(O)C(F)(F)F (stereo not shown) : Mtb heat-shock: -0.03513%; Mtb growth Cornell: 26.32%
- [H][C@@]12COC[C@]1(COCC1CC1)CN(C(=O)c1ccnnc1)C2 : Mtb heat-shock: -28.19%; Mtb growth Cornell: 11.71%
- O=C(CSc1ccccc1)N1C[C@H]2CC[C@@H]1CN(Cc1ccncc1)C2 : LdMetRS: 13.33%
- CC(C)(C)c1n[nH]c(C2CN(C(=O)CCc3cscn3)CCO2)n1 (stereo not shown) : Mtb heat-shock: 10.32%; Mtb growth Cornell: -20.07%; LdMetRS: 4.908%
- Cn1c(=O)ccn(CC(=O)N2CCCC(n3cccn3)C2)c1=O (stereo not shown) : Mtb heat-shock: 5.751%; LdMetRS: 13.54%
- [H][C@@]12COC[C@@H](C(=O)NC)[C@]1([H])CN(C(=O)c1ccc(C)c(C)c1)C2 : Mtb heat-shock: -4.082%; Mtb growth Cornell: 13.16%
- Cc1ccc(-c2nnc(CN3CCOCC(CO)C3)o2)n1C (stereo not shown) : Mtb heat-shock: -18.24%; LdMetRS: 10.26%
- [H][C@]12CCN(C(=O)c3cc[nH]n3)CC[C@@]1([H])S(=O)(=O)N(CC)C2 : Mtb heat-shock: -2.573%; Mtb growth Cornell: 8.519%
- CC(C)C1CN(C(=O)Nc2cnn(CC(F)F)c2)CCS1 (stereo not shown) : Mtb heat-shock: -9.911%; Mtb growth Cornell: -10.65%; LdMetRS: 2.174%
- O=C(CCn1c(=O)oc2ccccc21)NCC(O)c1ccc(Cl)cc1 (stereo not shown) : Mtb heat-shock: -3.948%; Mtb growth Cornell: 0.5005%; LdMetRS: 2.151%
- Cc1nc[nH]c1CN1CCC(C2CCN(CCc3ccccc3)C2)CC1 (stereo not shown) : Mtb heat-shock: -108.1%; LdMetRS: 24.47%
- COc1cc(C(=O)N2CCC(c3n[nH]c(C)n3)CC2)cc(OC)c1C : Mtb heat-shock: -7.979%; Mtb growth Cornell: 15.59%; LdMetRS: 11.75%
- O=C(NCc1nncn1C1CC1)c1ccccc1OCC1CC1 : Mtb heat-shock: 12.7%; Mtb growth Cornell: 4.668%; LdMetRS: 8.659%
- CCc1nnc2n1CCN(C(C(=O)N(CC)CC)c1ccccc1)C2 (stereo not shown) : Mtb heat-shock: 20.17%; Mtb growth Cornell: 31.96%; LdMetRS: 16.7%
- CCc1ncc(C(=O)N2CCCCC2Cn2cccn2)s1 (stereo not shown) : Mtb heat-shock: 24.6%; Mtb growth Cornell: 21.39%; LdMetRS: 11.75%
- CN(C)CC(=O)N1CCOCC2(C1)CN(c1ccccc1)C(=O)CO2 (stereo not shown) : Mtb heat-shock: 24.78%; Mtb growth Cornell: 4.59%; LdMetRS: 12.97%
- CCOC[C@@H]1CCC[C@]12CN(S(=O)(=O)c1cn(C)cn1)CCO2 : Mtb heat-shock: -0.4231%; Mtb growth Cornell: 12.89%; LdMetRS: 10.44%
- CCC[C@H]1CN(CCOC)C[C@@H]1NC(=O)Cn1cc(C)cn1 : Mtb heat-shock: -12.43%; Mtb growth Cornell: -2.523%; LdMetRS: 5.882%
- Cc1nc(CN(C)C2CCN(CCCc3ccccc3)C2)no1 (stereo not shown) : Mtb heat-shock: -13.87%; LdMetRS: 21.31%
- Cc1nc(CN2CCCC(NCCOCC(F)(F)F)C2)no1 (stereo not shown) : Mtb heat-shock: -4.312%; Mtb growth Cornell: -56.17%; LdMetRS: 6.103%
- COCC1CCN(S(=O)(=O)N2C[C@H](c3ccccc3)[C@@H](N)C2)CC1 : Mtb heat-shock: 1.807%; Mtb growth Cornell: 11.27%; LdMetRS: 14.93%
- CC(=O)N1CCCC1c1nccnc1Nc1ncccn1 (stereo not shown) : Mtb heat-shock: -24.47%; LdMetRS: 4.941%
- COCCN1CCCC2(CCN(c3nc(C)nc4ccsc34)C2)C1=O (stereo not shown) : Mtb heat-shock: 1.429%; Mtb growth Cornell: -11.15%; LdMetRS: 17.96%
- COc1ccc(N2CCN(C(=O)COc3c(C)occc3=O)CC2)cc1 : Mtb heat-shock: -11.84%; Mtb growth Cornell: 55.27%; LdMetRS: 17.49%
- Cc1ccc2c(c1)C1(CCN(C(N)=O)CC1)CN2CC1CC1 : Mtb heat-shock: 9.112%; Mtb growth Cornell: 5%; LdMetRS: 9.384%
- c1ccc(OCc2noc(CN3CCN(C4CCCC4)CC3)n2)cc1 : Mtb heat-shock: -14.06%; Mtb growth Cornell: -10.66%; LdMetRS: 1.985%
- O=C1O[C@@H]2CN(Cc3ccccc3)C[C@@H]2N1CCCN1CCOCC1 : LdMetRS: 23.41%

Some entries from above, unchanged:

compound,Mtb heat-shock,Mtb growth Cornell,LdMetRS
[H][C@]12CCN(C(=O)c3cc[nH]n3)CC[C@@]1([H])S(=O)(=O)N(CC)C2,-2.573,8.519,-
CCOC[C@@H]1CCC[C@]12CN(S(=O)(=O)c1cn(C)cn1)CCO2,-0.4231,12.89,10.44
Cc1ccc2c(c1)C1(CCN(C(N)=O)CC1)CN2CC1CC1,9.112,5,9.384